Like-named read-outs stand apart in the source and are kept apart here. Results are given in words; binding and its absence hold for the method and conditions named. In cells and extracts the contact can be indirect. Here binding means that the protein was enriched with, or labelled near, the bait; the list need not be complete.
B1: Yp3 (endogenous, embryo lysate) (protein, UniProt P06607 20-420)
chain: SKDASNDRLKPTKWLTATELENVPSLNDITWERLENQPLEQGAKVIEKIYHVGQIKHDLTPSFVPSPSNVPVWIIKSNGQKVECKLNNYVETAKAQPGFGEDEVTIVLTGLPKTSPAQQKAMRRLIQAYVQKYNLQQLQKNAQEQQQQLKSSDYDYTSSEEAADQWKSAKAASGDLIIIDLGSTLTNFKRYAMLDVLNTGAMIGQTLIDLTNKGVPQEIIHLIGQGISAHVAGAAGNKYTAQTGHKLRRITGLDPAKVLSKRPQILGGLSRGDADFVDAIHTSTFAMGTPIRCGDVDFYPNGPSTGVPGSENVIEAVARATRYFAESVRPGSERNFPAVPANSLKQYKEQDGFGKRAYMGLQIDYDLRGDYILEVNAKSPFGQRSPAHKQAAYHGMHHAQN
B2: Jaguar (Jar) (endogenous, embryo lysate) (protein, UniProt Q01989 1-1253)
chain: MLEDTQLVWVRDAAEGYIQGRITEIGAKEFEVTPTDRKYPKRTCHFDDIHSSCDGPQDHDDNCELMLLNEATFLDNLKTRYYKDKIYTYVANILIAVNPYREIKELYAPDTIKKYNGRSLGELPPHVFAIADKAIRDMRVYKLSQSIIVSGESGAGKTESTKYLLKYLCYSHDSAGPIETKILDANPVLEAFGNAKTTRNNNSSRFGKFIEVHYDAKCQVVGGYISHYLLEKSRICTQSAEERNYHVFYMLLAGAPQQLRDKLSLGKPDDYRYLSGCTQYFANAKTEQLIPGSQKSKNHQQKGPLKDPIIDDYQHFHNLDKALGRLGLSDTEKLGIYSLVAAVLHLGNIAFEEIPDDVRGGCQVSEASEQSLTITSGLLGVDQTELRTALVSRVMQSKGGGFKGTVIMVPLKIYEASNARDALAKAIYSRLFDRIVGLINQSIPFQASNFYIGVLDIAGFEYFTVNSFEQFCINYCNEKLQKFFNDNILKNEQELYKREGLNVPEITFTDNQDIIELIEAKSNGIFTLLDEESKLPKPSYSHFTAEVHKSWANHYRLGLPRSSRLKAHRTLRDEEGFLVRHFAGAVCYNTEQFIEKNNDALHASLEGLVQECDNPLLQTLFPSGSSTSVRGKLNFISVGSKFKTQLGELMEKLEQNGTNFIRCIKPNSKMIDRQFEGSLALAQLKCSGTISVLELMEHGYPSRVLFADLYSMYKSVLPPELVSLPARTFCEAMFQSLNLSAKDFKFGITKVFFRPGKFVEFDRIMRSDPENMLAIVAKVKKWLIRSRWVKSALGALCVIKLRNRIIYRNKCVLIAQRIARGFLARKQHRPRYQGIGKINKIRTNTLKTIEIASGLKMGREEIISGVNDIYRQIDDAIKKIKMNPRITQREMDSMYTVVMANMNKLTVDLNTKLKEQQQAEEQERLRKIQEALEAERAAKEAEEQRQREEIENKRLKAEMETRRKAAEAQRLRQEEEDRRAALALQEQLEKEAKDDAKYRQQLEQERRDHELALRLANESNGQVEDSPPVIRNGVNDASPMGPNKLIRSENVRAQQQALGKQKYDLSKWKYSELRDAINTSCDIELLEACRQEFHRRLKVYHAWKAKNRKRTTMDENERAPRSVMEAAFKQPPLVQPIQEIVTAQHRYFRIPFMRANAPDNTKRGLWYAHFDGQWIARQMELHADKPPILLVAGTDDMQMCELSLEETGLTRKRGAEILEHEFNREWERNGGKAYKNLGAAKPNGPAAAMQKQQ

By UniProt entry, the sequences of proteins in these tests, tags left out.
UniProt Q9VK45: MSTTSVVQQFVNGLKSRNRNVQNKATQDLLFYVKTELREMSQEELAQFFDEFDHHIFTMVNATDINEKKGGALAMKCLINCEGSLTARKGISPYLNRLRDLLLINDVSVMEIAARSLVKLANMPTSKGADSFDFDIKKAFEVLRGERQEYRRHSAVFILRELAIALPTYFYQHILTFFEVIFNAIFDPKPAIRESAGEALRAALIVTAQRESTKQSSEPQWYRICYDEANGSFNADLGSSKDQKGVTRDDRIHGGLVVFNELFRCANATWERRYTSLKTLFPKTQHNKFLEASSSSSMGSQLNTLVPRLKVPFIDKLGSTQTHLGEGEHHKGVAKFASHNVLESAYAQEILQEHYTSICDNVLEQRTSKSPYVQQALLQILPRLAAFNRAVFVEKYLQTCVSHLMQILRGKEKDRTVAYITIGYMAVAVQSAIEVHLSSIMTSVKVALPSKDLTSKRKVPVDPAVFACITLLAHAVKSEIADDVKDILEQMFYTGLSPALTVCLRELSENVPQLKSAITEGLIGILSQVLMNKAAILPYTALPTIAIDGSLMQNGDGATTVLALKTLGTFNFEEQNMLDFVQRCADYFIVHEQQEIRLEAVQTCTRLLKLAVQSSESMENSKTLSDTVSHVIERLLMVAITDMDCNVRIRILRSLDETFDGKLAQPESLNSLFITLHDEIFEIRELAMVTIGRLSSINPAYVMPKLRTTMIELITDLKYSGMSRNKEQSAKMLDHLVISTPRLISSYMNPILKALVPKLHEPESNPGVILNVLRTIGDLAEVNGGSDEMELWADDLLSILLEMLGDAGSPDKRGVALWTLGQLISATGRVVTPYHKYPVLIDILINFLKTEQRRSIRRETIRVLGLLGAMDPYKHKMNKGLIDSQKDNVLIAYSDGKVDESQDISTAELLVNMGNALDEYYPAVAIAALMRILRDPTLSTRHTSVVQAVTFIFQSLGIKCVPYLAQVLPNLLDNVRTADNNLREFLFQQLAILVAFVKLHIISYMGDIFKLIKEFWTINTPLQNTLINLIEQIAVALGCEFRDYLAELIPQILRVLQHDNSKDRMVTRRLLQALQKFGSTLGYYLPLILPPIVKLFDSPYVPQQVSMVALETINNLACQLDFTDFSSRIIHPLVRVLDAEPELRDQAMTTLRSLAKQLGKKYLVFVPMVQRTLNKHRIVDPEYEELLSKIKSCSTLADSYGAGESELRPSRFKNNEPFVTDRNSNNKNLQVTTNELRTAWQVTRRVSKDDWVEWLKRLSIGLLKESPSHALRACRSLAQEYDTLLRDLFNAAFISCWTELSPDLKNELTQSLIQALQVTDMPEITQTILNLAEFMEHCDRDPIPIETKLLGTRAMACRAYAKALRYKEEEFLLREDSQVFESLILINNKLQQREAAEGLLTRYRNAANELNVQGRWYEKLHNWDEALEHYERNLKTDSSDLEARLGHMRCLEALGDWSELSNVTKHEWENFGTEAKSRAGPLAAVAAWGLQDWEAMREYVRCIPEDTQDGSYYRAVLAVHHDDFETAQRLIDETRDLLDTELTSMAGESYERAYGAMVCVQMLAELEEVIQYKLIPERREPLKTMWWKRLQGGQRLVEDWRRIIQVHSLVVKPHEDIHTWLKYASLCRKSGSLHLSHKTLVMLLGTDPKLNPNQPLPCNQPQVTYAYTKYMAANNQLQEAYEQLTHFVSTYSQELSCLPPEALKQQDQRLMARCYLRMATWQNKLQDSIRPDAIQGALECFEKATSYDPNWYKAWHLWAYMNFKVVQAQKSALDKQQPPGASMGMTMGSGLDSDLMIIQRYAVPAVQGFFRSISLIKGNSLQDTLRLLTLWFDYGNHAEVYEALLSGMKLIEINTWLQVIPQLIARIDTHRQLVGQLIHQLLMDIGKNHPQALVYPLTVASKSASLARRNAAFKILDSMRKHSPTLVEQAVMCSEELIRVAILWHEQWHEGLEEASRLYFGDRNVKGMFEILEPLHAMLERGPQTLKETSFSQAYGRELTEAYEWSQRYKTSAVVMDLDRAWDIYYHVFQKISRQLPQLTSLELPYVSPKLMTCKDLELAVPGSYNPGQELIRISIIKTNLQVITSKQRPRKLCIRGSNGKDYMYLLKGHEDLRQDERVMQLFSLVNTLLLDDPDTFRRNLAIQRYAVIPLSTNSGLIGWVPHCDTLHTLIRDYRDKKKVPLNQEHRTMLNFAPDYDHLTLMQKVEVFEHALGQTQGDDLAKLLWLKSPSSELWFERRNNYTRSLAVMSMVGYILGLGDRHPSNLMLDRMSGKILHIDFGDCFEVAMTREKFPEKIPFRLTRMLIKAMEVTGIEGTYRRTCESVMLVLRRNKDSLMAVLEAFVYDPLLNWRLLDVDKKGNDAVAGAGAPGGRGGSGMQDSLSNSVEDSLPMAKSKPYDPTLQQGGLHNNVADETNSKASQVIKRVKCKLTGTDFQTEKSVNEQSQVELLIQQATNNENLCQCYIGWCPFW

Columns and labels:
GST-Bsd (Drosophila) [1] = target: GST-Bsd (Drosophila) (UniProt Q7KMI3); test: affinity purification with mass spectrometry
GST-Bsd (Drosophila) [2] = target: GST-Bsd (Drosophila) (UniProt Q7KMI3); test: affinity purification with mass spectrometry; remark: listed apart in the source

Molecule | binding (GST-Bsd (Drosophila) [1]) | binding (GST-Bsd (Drosophila) [2])
Target of Rapamycin (from UniProt Q9VK45 1-2470) | binds | –
B1 | – | binds
B2 | – | binds

Source: doi:10.1101/2020.06.16.155333
